Reference: PMC10163288
This is one part of the list.

B1: il2ra_site2_3nfp_normal_mot_HHH_b1_01086_000000225_0001_20_36_H_._HHH_b2_07947_0001_0000100002_0000001_0_af2pred_0001_af2pred (protein)
chain: SSSSSSDEEEEVEELLEEAKHIDDPFERFAALADAARLALEAKNPELVRLVLELSAKLSSSSSSS
B2: il2ra_site2_3nfp_sap_21_mot_HHH_b1_01221_af2_000000126_0001_40_57_H_._HHH_b2_06118_af2_0001_0000300008_0000001_0_0001 (protein)
chain: SSSSDEEERLEELIEELRRLKEEGDRERAMEVLMELSELALEVGDEEAVRFVLEYFAELQSSSSS
B3: il2ra_site1_2b5i_normal_mot_ems_3hM_3687_af2_000000248_0001_45_64_H_._HHH_b2_00860_af2_0001_0000400030_0000001_0_af2pred_dldesign_0_af2pred (protein)
chain: SSSSNRRETLLEIERLFKEAEEEEDKEKAKELLEKALELAKKAKDEAAVKQIEEELEELKSSSSS
B4: il2ra_site1_2b5i_normal_mot_HHH_b1_01419_af2_000000080_0001_42_53_H_._HHH_b2_00795_af2_0001_0000100010_0000001_0_af2pred_dldesign_0_af2pred (protein)
chain: SSSSSSEEEKAAEVHDLALEAFKLKDKEERKKVLDKALELAKELGDEKLIAEIEYLKEKLSSSSS
B5: il2ra_site1_1z92_sap_14_mot_HHH_b1_00499_000000182_0001_1_17_H_._HHH_b2_06812_af2_0001_0000100005_0000001_0_0001_af2pred_0001_af2pred_1 (protein)
chain: SSSSTKELRELLEEADRLAKRIDREGDPRLREELEELLEEAEELGSKFLVRAIRDALELLESSSS
B6: il2ra_site1_1z92_normal_mot_HHH_b2_06855_af2_000000074_0001_38_49_H_._HHH_b2_08055_af2_0001_0000200010_0000001_0_af2pred_0001_af2pred (protein)
chain: SSSSSEETRRRRELIEQLDEAVRKGDEELLEKLLEEAEEVAKELNSRLLELMVEQAESLLSSSSS
B7: il2ra_site2_2erj_normal_mot_90f6a21de4ed711cb697bb9f61d9c40c_0001_af2_000000135_0001_36_50_H_._HHH_b2_03327_0002_0000300012_0000001_0_af2pred_0001_af2pred_swapp … (protein)
chain: SSSDREEVAKRVVEELVEELGLDERAQELLELAAESAIEAGASPEQIEIFLRLLAEELLKIASSS
B8: il2ra_site2_2erj_normal_mot_HHH_b2_04203_000000297_0001_23_39_H_._HHH_b1_07506_0001_0000100002_0000001_0_af2pred_0001_af2pred (protein)
chain: SSSSDEEERELEELLRLVEELLRQGNPEEAKEVLAKALKIALENNDQEILERLARLFLLLKSSSS
B9: il2ra_site1_3nfp_sap_14_mot_HHH_b1_04676_af2_000000031_0001_1_20_H_._HHH_b2_00375_0001_0000200007_0000001_0_0001_af2pred_0001_af2pred_1 (protein)
chain: SSSSDLMKRAAELARRILELLREGDEEEAEELIEELKEIAKERNDETAKEFVERLEERVNSSSSS
B10: il2ra_site1_3nfp_sap_10_mot_HHH_b2_00441_000000105_0001_1_18_H_._HHH_b1_08277_af2_0001_0000500008_0000001_0_0001 (protein)
chain: SSSSSSATREVLELLQRAVELAERGNPEEAKELLEEAQEIAEENNNPNLERTVEVAKKILSSSSS
B11: il2ra_site1_3nfp_sap_23_mot_HHH_b1_03424_af2_000000207_0001_40_57_H_._HHH_b1_00024_af2_0001_0000100007_0000001_1_0001 (protein)
chain: SSSSTSDEFMERLVERAFEEGDRLQLRALIRLLRHALETMGNPIAHELLEEAEELLERLRSSSSS
B12: il2ra_site1_2b5i_normal_mot_ems_3hM_3687_af2_000000248_0001_45_64_H_._HHH_b1_01139_af2_0001_0000200007_0000001_0_af2pred_dldesign_0_af2pred (protein)
chain: SSSSSAKRAEVERLLEEARTLEDVREALKVVEEALKLAEELEDEELIQRAEDLARELMTRSSSSS
B13: il2ra_site1_2b5i_sap_9_mot_HHH_b2_04463_af2_000000056_0001_43_55_H_._HHH_b2_03111_af2_0001_0000100011_0000001_1_0001_af2pred_dldesign_0_af2pred (protein)
chain: SSSSSPNHRRMAAQAKEEAEEALKEGDKETVKKLIEELEALARLLRDPEALAAAKELKEKLSSSS
B14: il2ra_site2_3nfp_sap_17_mot_HHH_b2_03589_000000206_0001_42_55_H_._HHH_b2_04493_0001_0000900041_0000001_1_0001 (protein)
chain: DEEVKEFLEKAAKLGEFSPEQIVFIAAARLLLKGLSPEEIRKLLEKVVEELGDPELEEAIKHQNQ
B15: il2ra_site2_3nfp_sap_19_mot_HHH_b2_06150_000000217_0001_39_53_H_._HHH_b1_07003_af2_0001_0000500039_0000001_0_0001_af2pred_0001_1_af2pred_swapped (protein)
chain: SSSSDLEERVEELLEQVEELLENGDPERARELLEEAARLAAKNNNEELLKEIDEIAEEVNSSSSS
B16: il2ra_site1_2b5i_sap_14_mot_HHH_b1_02697_000000175_0001_1_14_H_._HHH_b1_02394_0001_0000100006_0000001_0_0001 (protein)
chain: SSSSDVHERVDELFHEASELWRKGNPEEARKLLEEAIELAEERGDPTAEDLQQMLERIRNSSSSS
B17: il2ra_site1_1z92_sap_22_mot_203a44625a3a2ba431098544127a80a6_0001_af2_000000214_0001_15_33_H_._HHH_b1_06856_af2_0001_0000300036_0000001_0_0001_af2pred_0001_af2p … (protein)
chain: SSSSDKLERNARIIVRLLLRAAGLSEEQREELERVAKELVEEGVNREELMKILHEVALKLASSSS
B18: il2ra_site1_3nfp_normal_mot_HHH_b2_01814_000000033_0001_1_16_H_._HHH_b2_07272_0001_0000200005_0000001_0_af2pred_0001_af2pred_swapped (protein)
chain: SSSSDESREADELIKEISEAKRRGDEEEARRILEELEELAKKANSPIAELAVRKLREEIDSSSSS

Target: il2ra, P01589
Assay: yeast display titration

| Binder | apparent Kd |
| --- | --- |
| B1 | inactive: no binding seen |
| B2 | inactive: no binding seen |
| B3 | inactive: no binding seen |
| B4 | inactive: no binding seen |
| B5 | inactive: no binding seen |
| B6 | inactive: no binding seen |
| B7 | inactive: no binding seen |
| B8 | inactive: no binding seen |
| B9 | inactive: no binding seen |
| B10 | inactive: no binding seen |
| B11 | inactive: no binding seen |
| B12 | inactive: no binding seen |
| B13 | inactive: no binding seen |
| B14 | inactive: no binding seen |
| B15 | inactive: no binding seen |
| B16 | inactive: no binding seen |
| B17 | inactive: no binding seen |
| B18 | inactive: no binding seen |

Reformatted: entries from further up.
Binder,apparent Kd
B16,inactive: no binding seen
B18,inactive: no binding seen
